# Variants at the background level are over-represented here.
# B1: tRNA (parent)
# chain: GUUCCGUUGGCGUAAUGGUAACGCGUCUCCCUCCUAAGGAGAAGACUGCGGGUUCGAGUCCCGUACGGAACG
# Variants of: B1
# Assay: yeast fitness relative to wild type (ratio to wild type); higher = fitter; tRNA-Arg(CCU), competitive growth, 37 C, YPD
# How it was run: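 Variants of the tRNA-Arg(CCU) gene were chemically synthesised with a 3% per-site mutation rate across 69 sites and placed at the native genomic locus in Saccharomyces cerevisiae. Six parallel replicates of the pooled strains were competed in YPD at 37°C for 24 hours, and gene amplicons from the start and end populations were read by 100-nucleotide paired-end sequencing. Darwinian fitness relative to wild type was derived from changes in genotype frequencies. Genotypes required ≥ 100 starting reads, and estimates < 0.5 were set to 0.5.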
row,Variant,yeast fitness
1,GUUCCGUUGGCGUAAUGGCCUCGCGUCUCCCUCCUAAGGAGAAGACUGCGGGUUUGAGUCCCGUACGGAACG [U19C A20C A21U C55U],≤ 0.5
2,GUUCCGUUGGCGUAAUGGUAACGCGUAUACCUACUAAGGAGAAGACUGCGGGUUCGAGUCCCGUACGGAACG [C27A C29A C33A],≤ 0.5
3,GAUCCGUUGGCGUAAUGGUAACGCGUCUCCCUCCUAAGGACAAGACUGCCGGUUCGAGUCCGGUAGGGAACG [U2A G41C G50C C62G C66G],≤ 0.5
4,GUUCCGUUGGGGUAAUGGUAACGCGUCUCUCUCCUAAGGAGACGACUGUGGGUUCGAGUCCCGAACGGAACG [C11G C30U A43C C49U U64A],≤ 0.5
5,GUUCCGUUGGCGUAAUCGUAAAGCGUCCCCCUCCUAAGGGGAAGCCUGCGGGUUCGAGUCCCGUAGGGUACG [G17C C22A U28C A40G A45C C66G A69U],≤ 0.5
6,GUUCCGUUGGCGUAAUGGUAACGCGUCUCCCUCCUAAGGAGAAGACUGCGAGUUCGUGUCCCAUUCGGAUCG [G51A A57U G63A A65U A70U],≤ 0.5
7,GUUCCAUUGGCGUAAUAGUAACGCGUUUCCGUCCUAAGGAGAAGACUGCGGGUUCGAGUCCCGUAGGGAACG [G6A G17A C27U C31G C66G],≤ 0.5
8,GUUCCGUUGGCGUAAUGGUAACGCGUCUCGCUGCUAAGGAGAAGACUGGGGGUUCGAGUCCCGUACGGACCG [C30G C33G C49G A70C],≤ 0.5
9,GUUCCGUUGGCGUAAUGGUAACGUGUCUCCCUCCUAAGGAGAAGACUCCGGGUUCGAGUCCCGUACGGAACG [C24U G48C],0.955
10,GUUCCGUUGGCGUAAUGGUAAUGAGUCUCCCUCCUAAGGAGAAGACUGCGGGUUCGAGUCCCGUACGGAUCG [C22U C24A A70U],≤ 0.5
11,GUUCCAUUGGCGUAAUGGUAACGCGUCUCCCUCCUAAGGAAAAGACUGAGGGUUCGAGUCCCGUAAGGAACG [G6A G41A C49A C66A],≤ 0.5
12,GUUGCGUUGGCGUAAUGGUAACGCGUCUCCCUCCUAAGGUGAAGUCUGCGGGUUCGAGUCCUGUACGGAACG [C4G A40U A45U C62U],≤ 0.5
13,GUUCCGUUGGCGUAAUGGUAACGCGUCUCGCUCCUAAGGAGAAGAUUACGGGUGCGAGUCCCGUACGGAACG [C30G C46U G48A U54G],≤ 0.5
14,GUUGCCUUGGCGUAAUGGUAACGCGUCUCCCUCCUAAGGAGAAGACUGCGGGUUCGAGUCCCGUUCGGAACG [C4G G6C A65U],≤ 0.5
15,GUAACGUUGGCGUAAUGGUAACGCGUCUCCCUCCAAUGGAGAAGAUUGCGGGUUCGAGUCCCGUCCGGAACG [U3A C4A U35A A37U C46U A65C],≤ 0.5
16,GUUGCGUUGGCGUAAUGCUAACGCGUCUCACUCCUAAGGAGAAGACUGCGGGUUCGAGUCCCGUACGGACCG [C4G G18C C30A A70C],≤ 0.5
17,GUACUGUUGGCGUAAUGGUAACGCGUCUCCCUGCUAAGGAGAAGACUGCGGGUUCGAGUCCCGUACGGAACG [U3A C5U C33G],0.639
18,GUUCCGUUGGCGUAAUGGUAACGCGUCUCCCUUCUAAGGAGAAGACUGCGGGUUCGAGUCUCGUAGGGAACG [C33U C61U C66G],0.543
19,GUUCUGUUGGCGUAAUGGUUACGCGUCUCCCUCCUAAGGAGAAGACUGCGGGUUCGAGUCUUGUACGGAACG [C5U A20U C61U C62U],≤ 0.5

row,Variant,yeast fitness
1,GCUCCGUUGGCGUAAUGGUAACGCGUCUCCUUCCCAAGGAGAAGACUGCGGGUUCGUGUCCCGUACGGAACG [U2C C31U U35C A57U],≤ 0.5
2,GUUCAGUUGGCGUAGUGGUAACGCGUCUCCCUCUUAAGGCGAAGACUGCGGGUUCAAGUCCCGUACGGAACG [C5A A15G C34U A40C G56A],≤ 0.5
3,GUUCCGUUGGCGUAAUGGUAACGCGUCUCCGUCCUAAGGAGCAGACUGCGGGUUUGAGUCCCGUACGAAACG [C31G A42C C55U G68A],0.542
4,GUUCUGUUGGUGUAAUGGUAACGCGUCUCCCUCCGAAGGAGAUGAGUGCGGGUUCGAGUCCUGUACGGAACG [C5U C11U U35G A43U C46G C62U],≤ 0.5
5,GUUACGUUGGCGUAAUGGUAACGCGUCUCCCUCCUAAGGAGAAGACUGCGGGUGCGAGUCCCGUACGGAACG [C4A U54G],0.612
6,GUUCCGUUGGCGUAAUGGUAACGUGUCUCCCUCAUAAGGAGAAGACUGCGGGUUCGAGUCCCGUACGGAACG [C24U C34A],0.783
7,GUUCCGUUGGCGUAAUGAUAACGCGUCUCCCUCCUAAGGAGAAGACUGCGGGUUCGAGUCCCGUACACAACG [G18A G67A G68C],≤ 0.5
8,GUUCCGUUGGCGUAAUGGUAACGCGUGUCCCUCCUAAGGAGAAGACUGCGGGUUCGAAUCCCGUACGGAACG [C27G G58A],0.698
9,GUUCCGUAGGCGUAAUGGUAACGCGUCUCCCUCCUAAGGAGUAGACCGCGGGUUGGAGUCCCGUACGGAACG [U8A A42U U47C C55G],≤ 0.5
10,GUUCCGUUGGCGUAGUGGUAACGCGUCUCCCUCCUAAGGAGAAGACUGCGGGUUAGAGUCCCGCACGGAACG [A15G C55A U64C],≤ 0.5
11,GUUCCGUUGGCGUAAUGGUAACGCGUCUCCCUCCUAAGGAGAAGACUGCGGCUUCGCGUCCCGUACGGAACG [G52C A57C],0.526
12,GUUCCGUUGGCGUAAUGGUAACGCGUCUACCUCCUAUGGAGAAGACUGCGGGUUCGAGUCCCGUACGGAUCG [C29A A37U A70U],≤ 0.5
13,GUUCCGUUGGAGUAAUGGUAACGCGUCUCCUUCCUAAGGAGAAGACUGCGGGUUCGAGACCCGUACGGAACG [C11A C31U U59A],≤ 0.5
14,GUUGCGUUGGCGUAAUAGUAACGCGCCUCCCUCCUAAGGGGAAGACUGCGGGUUCGAGUCCCGUACGUAACG [C4G G17A U26C A40G G68U],≤ 0.5
15,GUUCCGUUGGCGUAAUGGUAACGCGUCUCCCUCCUACGGAGAAGACUGAGGGUUCGAGUCCCGUAUGGAACG [A37C C49A C66U],≤ 0.5
16,GUUCUGUUGGCGUAAUGGUAAUGCGUCUCCCUGCUAAGGAGAAGACUGCGGGUUGGAGUCCCGUACGGAACG [C5U C22U C33G C55G],≤ 0.5
17,GUUCCGUUGGCGUAAUGGUAACCCGUCUCCCUCCUAAGGAGUAGACUGGGGGUUCGAGUCCCGUACGGAACG [G23C A42U C49G],≤ 0.5
18,GUUCCGUUGGCGUAAUGGUAACGCGUCUCACUCCUAAGGAGAAGACUGCGGGUUCGAGUCCCGUACGGGACG [C30A A69G],0.915

# Source: the RNAGym collection of RNA variant scans (doi:10.1126/science.aae0568)
